± gives the standard deviation of the averaged measurements. Some of the results follow. Baselines shift from plate to plate; read single values as rough.

For 20 compounds, total nuclei results are on record in the supplement of paper PMC4840960.

The subject of the first experiment is E18 rat cortical neuron-glia co-culture. Nature of the experiment: total nuclei (DAPI) / Olig2+ nuclei (ratio); higher = more depletion of OPC/OL lineage cells. The following applies: 1 µM; treatment time: 8 days (DIV5-DIV13). Here is the method: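 Primary E18 rat cortical co-cultures (neurons, astrocytes, OPC/OLs) in 96-well plates. NIH Clinical Collection compounds were added on DIV5 in myelination medium at 5 and 1 µM for 8 days, then cells were fixed on DIV13 and stained for MBP, Olig2 and DAPI. Myelination (contiguous aligned MBP fiber length per Olig2+ nucleus) was normalised to plate controls (0.1% DMSO = 0, 1 µM DAPT = 100) as % of DAPT. Each value is from duplicate wells with 4 image fields each. Fiber length/MBP is the fiber score divided by the MBP differentiation score; DAPI/Olig2 is the ratio of total to Olig2+ nuclei.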
In the case of `CNC1CC(c2ccc(Cl)c(Cl)c2)c2ccccc21` (stereo not given) [Indatraline], the total nuclei came out at 5.78.
Still for that read-out and setting: with `CCC(C(N)=O)N1CCCC1=O` (stereo not given) [Etiracetam] the figure was 4.92; with `c1ccc2c(c1)Nc1ccccc1S2` [Phenothiazine], 2.82; with `C=CCN1CC[C@]23c4c5ccc(O)c4O[C@H]2C(=O)CC[C@@]3(O)[C@H]1C5` [Naloxone], 2.87.
Regarding `CCCCC/C=C\C/C=C\C/C=C\C/C=C\CCCC(=O)Nc1ccc(O)cc1`, the total nuclei was determined as 8.92.
`CS(=O)(=O)Nc1ccc(Cc2noc(-c3ccc4[nH]cc(CCN)c4c3)n2)cc1`: the total nuclei is 2.9.
Same read-out and setting: the figure for `CC[C@@H]1C=CC=CC[C@H](C)[C@@H](O)[C@@H](C)C(=O)[C@H](C)[C@@H](O)[C@H](C)C(=O)[C@H](C)[C@@H](O)[C@H](C)C=CC(=O)O[C@H]2[C@@H](C)[C@@H](CC1)O[C@@]1(CC[C@@H](C)[C@@H](C[C@H](C)O)O1)[C@@H]2C` [Oligomycin C] is 5.93; for `O=c1c2ccccc2[se]n1-c1ccccc1` [Ebselen] it is 4.7.
Still for that read-out and setting: with `Cc1ncc2n1-c1ccc(Cl)cc1C(c1ccccc1F)=NC2` [Midazolam] the figure was 6.36; with `Oc1cc(Cl)ccc1Oc1ccc(Cl)cc1Cl` [Triclosan], 4.76; with `C[C@]12CC[C@H](O)CC1=CC[C@@H]1[C@@H]2CC[C@@]2(C)[C@H]1CC[C@]2(C)O` [Methandriol], 2.92.
Same read-out and setting: the figure for `NC(=O)OCCCc1ccccc1` [Phenprobamate] is 2.89; for `c1ccc2c3c([nH]c2c1)CNCC3` [Tryptoline] it is 2.7.
For `C[C@]12CCC(=O)C=C1CC[C@@H]1[C@@H]2CC[C@@]2(C)[C@H]1CC[C@]2(C)O` [Methyltestosterone], the total nuclei was found to be 3.46.
On the same count and under the same terms, with `C[C@]12Cc3c[nH]nc3C[C@@H]1CC[C@@H]1[C@@H]2CC[C@@]2(C)[C@H]1CC[C@]2(C)O` [Stanozolol] the figure was 4.03; with `C#CCN(C)[C@H](C)Cc1ccccc1` [Selegiline], 3.71 ± 1.2; with `N=C(NCc1ccc(Cl)cc1)SCCCc1c[nH]cn1` [Clobenpropit], 3.5.
The same measure, in the same setting: with `COc1cc2c(cc1OC)[C@@]13CCN4CC5=CCO[C@H]6CC(=O)N2[C@H]1[C@H]6[C@H]5C[C@H]43` [Brucine] the figure was 2.73; with `CC(C)(O)[C@@H]1[C@H]2OC(=O)[C@@H]1[C@]1(O)C[C@H]3O[C@]34C(=O)O[C@H]2[C@]14C` [Picrotin], 3.3.
Same read-out and setting: with `COc1ccc(C(CN(C)C)C2(O)CCCCC2)cc1` (stereo not given) [Venlafaxine] the figure was 2.9.

The same experiment, now with this note: 5 µM; treatment time: 8 days (DIV5-DIV13).
`CNC1CC(c2ccc(Cl)c(Cl)c2)c2ccccc21` (stereo not given) [Indatraline]: the total nuclei is greater than 40.
Still for that read-out and setting: the figure for `CCC(C(N)=O)N1CCCC1=O` (stereo not given) [Etiracetam] is 4.2.
On the same count and under the same terms, the figure for `c1ccc2c(c1)Nc1ccccc1S2` [Phenothiazine] is 2.6; for `C=CCN1CC[C@]23c4c5ccc(O)c4O[C@H]2C(=O)CC[C@@]3(O)[C@H]1C5` [Naloxone] it is 2.8; for `CCCCC/C=C\C/C=C\C/C=C\C/C=C\CCCC(=O)Nc1ccc(O)cc1` it is 8.
Same read-out and setting: with `CS(=O)(=O)Nc1ccc(Cc2noc(-c3ccc4[nH]cc(CCN)c4c3)n2)cc1` the figure was 3; with `CC[C@@H]1C=CC=CC[C@H](C)[C@@H](O)[C@@H](C)C(=O)[C@H](C)[C@@H](O)[C@H](C)C(=O)[C@H](C)[C@@H](O)[C@H](C)C=CC(=O)O[C@H]2[C@@H](C)[C@@H](CC1)O[C@@]1(CC[C@@H](C)[C@@H](C[C@H](C)O)O1)[C@@H]2C` [Oligomycin C], 8.3.
In the case of `O=c1c2ccccc2[se]n1-c1ccccc1` [Ebselen], the total nuclei was greater than 40.
Still for that read-out and setting: the figure for `Cc1ncc2n1-c1ccc(Cl)cc1C(c1ccccc1F)=NC2` [Midazolam] is 9.5; for `Oc1cc(Cl)ccc1Oc1ccc(Cl)cc1Cl` [Triclosan] it is greater than 40; for `C[C@]12CC[C@H](O)CC1=CC[C@@H]1[C@@H]2CC[C@@]2(C)[C@H]1CC[C@]2(C)O` [Methandriol] it is 2.9.
The same measure, in the same setting: the figure for `NC(=O)OCCCc1ccccc1` [Phenprobamate] is 3; for `c1ccc2c3c([nH]c2c1)CNCC3` [Tryptoline] it is 2.9.
Same read-out and setting: with `C[C@]12CCC(=O)C=C1CC[C@@H]1[C@@H]2CC[C@@]2(C)[C@H]1CC[C@]2(C)O` [Methyltestosterone] the figure was 3.8.
As for `C[C@]12Cc3c[nH]nc3C[C@@H]1CC[C@@H]1[C@@H]2CC[C@@]2(C)[C@H]1CC[C@]2(C)O` [Stanozolol], the total nuclei was greater than 40.
The same measure, in the same setting: with `C#CCN(C)[C@H](C)Cc1ccccc1` [Selegiline] the figure was 3.3 ± 0.57.
Same read-out and setting: the figure for `N=C(NCc1ccc(Cl)cc1)SCCCc1c[nH]cn1` [Clobenpropit] is 4.2.
The same measure, in the same setting: the figure for `COc1cc2c(cc1OC)[C@@]13CCN4CC5=CCO[C@H]6CC(=O)N2[C@H]1[C@H]6[C@H]5C[C@H]43` [Brucine] is 3.1; for `CC(C)(O)[C@@H]1[C@H]2OC(=O)[C@@H]1[C@]1(O)C[C@H]3O[C@]34C(=O)O[C@H]2[C@]14C` [Picrotin] it is 3.8.
Regarding `COc1ccc(C(CN(C)C)C2(O)CCCCC2)cc1` (stereo not given) [Venlafaxine], the total nuclei amounted to 2.9.
